{"source": "paper PMC4455059", "about": "(Nature Communications, 2015)", "experiment": "general procedure: Fmoc solid-phase peptide synthesis; 2-Chlorotrityl, H-Rink-Amide Chemmatrix or TentaGel S NH2", "conditions": "conjugation step", "note": "Some peptides are written in HELM: one residue between dots, names in brackets for other building blocks, links after the first $."}
{"substance": "PEPTIDE1{A.N.G.R.A.[Trp2yl]}|PEPTIDE2{[Phe4yl].L.L.V.L}$PEPTIDE1,PEPTIDE1,1:R1-6:R2|PEPTIDE2,PEPTIDE2,1:R1-5:R2|PEPTIDE1,PEPTIDE2,6:R3-1:R3$$$V2.0", "values": [{"measurement": "conjugation yield", "value": 2, "unit": "%"}]}
